Experimental data taken from PubChem BioAssay AID540276 (National Center for Advancing Translational Sciences (NCATS), 2011).
Screen size: about 300,000 compounds; about 5,400 (1.8%) were called active. Inconclusive results, whose numbers are uncertain, are shown with a selection of clear calls. The call rests on the fitted dose curve; tested in HEK293 cells. Potencies beside an inconclusive call are fits to weak or partial responses and may not hold up.
Potency means the concentration at half of the fitted maximal effect.

Test: qHTS for inhibitors of binding or entry into cells for Marburg Virus
Conditions: Marburg virus pseudotyped entry inhibition, cell reporter; series mostly up to 37.8 µM
For `CCn1cc(Br)c(C(=O)Nc2ccc(Cl)c(Cl)c2)n1`, the Potency was “inactive”. For `Cc1oc(-c2cccs2)nc1CSCC(=O)NC1CC1`, the Potency was “inactive”. In the case of `COc1cccc(C2CC(c3cccs3)=NN2C(=O)CSc2nc3ccccc3s2)c1OC` (centres undefined), the Potency is reported as inconclusive: 10 µM [inhibitor, single point]. With `Cc1cccn2c(=O)c3cc(C(=O)NCCN4CCOCC4)c(=N)n(Cc4ccc(F)cc4)c3nc12` the Potency was inconclusive: 7.08 µM [inhibitor, partial curve, poor fit]. For `COc1cc(SC)ccc1C(=O)Nc1ccc(C)cc1C`, the Potency was inconclusive: 1.58 µM [activator, partial curve, poor fit]. For `Nc1c(C(=O)N2CCCC2)sc2nc3c(cc12)CCCCCC3`, the Potency was inconclusive: 15.8 µM [activator, single point]. With `CN(C(=O)COC(=O)c1cnc(Cl)c(Cl)c1)C1CCCCC1` the Potency was inconclusive: 10 µM [inhibitor, partial curve, poor fit]. For `CCc1nn(CCCC(=O)N2CCc3ccccc3C2)c(=O)c2cc3occc3n12`, the Potency was inconclusive: 22.4 µM [inhibitor, partial curve, poor fit]. In the case of `COc1cccc(CNc2ccc(F)c(Cl)c2)c1OC`, the Potency is reported as “inactive”. For `Cc1ccc(Nc2c(N)c(=O)oc3ccccc23)cc1`, the Potency was inconclusive: 29.1 µM [inhibitor, single point]. For `CC(C)CC(COCc1cccc(Cl)c1)N1CCN(C(=O)c2ccc(C(F)(F)F)cc2)CCC1=O` (centres undefined), the Potency was inconclusive: 16.4 µM [inhibitor, single point]. With `CCOc1ccccc1C(=O)N[C@H](C(=O)OCC(=O)Nc1nnc(-c2ccccc2)o1)C(C)C` the Potency was “inactive”. In the case of `CCCc1cc(C(=O)Nc2cccnc2Cl)no1`, the Potency is reported as inconclusive: 7.08 µM [activator, full curve, poor fit]. For `Cc1ccc(N2CCN(C(=O)c3cc(-c4ccc(F)cc4)[nH]c3C)CC2C)cc1` (centres undefined), the Potency was inconclusive: 5.62 µM [inhibitor, partial curve, poor fit]. In the case of `Cn1c(C(=O)NCCCN2CCN(c3ccccc3F)CC2)cc2c(=O)[nH]c3ccccc3c21`, the Potency is reported as inconclusive: 13 µM [inhibitor, partial curve, poor fit]. For `O=C(CSc1nc2ccccc2[nH]1)c1c[nH]c2ccccc12`, the Potency was “inactive”. For `COc1ccc(NC(=O)C2C3CCC(O3)C2C(=O)O)c(C)c1` (centres undefined), the Potency was inconclusive: 5.62 µM [inhibitor, partial curve]. With `O=c1c2ccccc2c(C=NCCCN2CCOCC2)c(O)n1Cc1ccc2c(c1)OCO2` the Potency was “inactive”. With `C[C@@H]1OC(Nc2ccc(N=Nc3ccccc3)cc2)[C@H](O)[C@H](O)[C@H]1O` (some centres undefined) the Potency was “inactive”. For `O=C(Nc1cccn2ncnc12)C(F)(F)F`, the Potency was inconclusive: 6.31 µM [activator, single point]. With `CCn1c(=O)cc(SCC(=O)NCCc2cc(OC)ccc2OC)c2ccccc21` the Potency was “inactive”. For `Cc1cccc(NC(=O)CCCCCN2C(=O)c3ccccc3C2=O)n1`, the Potency was “inactive”. In the case of `Cc1ccc(S(=O)(=O)c2nc(S(C)(=O)=O)sc2N2CCC(C(N)=O)CC2)cc1`, the Potency is reported as “inactive”. For `CCn1ccnc1CN(C)Cc1nc(CCC(C)C)no1`, the Potency was inconclusive: 7.08 µM [activator, full curve, poor fit]. With `COc1ccc(Cn2nnc(C(=O)Nc3cc(OC)ccc3OC)c2N)cc1` the Potency was “inactive”. With `Cc1ccc(-c2cc(C(F)(F)F)n3ncc(C(=O)N4CCN(C)CC4)c3n2)cc1` the Potency was inconclusive: 7.08 µM [inhibitor, partial curve, poor fit]. For `CC(=O)NS(=O)(=O)c1ccc(NC(=S)NC(=O)C2CCC2)cc1`, the Potency was inconclusive: 6.31 µM [inhibitor, single point]. With `CC1(C)CC(C(CCN(Cc2ccccc2)C(=O)c2ccco2)c2ccc(F)cc2)CCO1` (centres undefined) the Potency was inconclusive: 22.4 µM [inhibitor, single point]. In the case of `Cc1ncoc1C(=O)Nc1ccccc1C(N)=O`, the Potency is reported as “inactive”. For `COc1ccc(OC)c(NS(=O)(=O)c2ccc(Cl)nc2)c1`, the Potency was “inactive”. For `COC[C@H](C)Nc1ncnc2c1cnn2-c1ccc(Cl)cc1`, the Potency was inconclusive: 15.8 µM [inhibitor, single point]. In the case of `Cc1ccc(/C=N/NC(=O)c2cccc3ccccc23)o1`, the Potency is reported as “inactive”. With `C#CC(=O)N(c1ccc(OC)c(OC)c1)C(C(=O)NC1CCCC1)c1cccs1` (centres undefined) the Potency was active: 3.55 µM. In the case of `Brc1ccc(-c2csc(-c3ccncc3)n2)cc1`, the Potency is reported as inconclusive: 25.1 µM [inhibitor, single point]. For `N#CCC(=O)N/N=C/c1cccc(Oc2ccccc2)c1`, the Potency was inconclusive: 3.16 µM [inhibitor, partial curve]. For `COC(=O)c1ccc(C(=O)OC)c(NC(=S)N2CCCCC2C)c1` (centres undefined), the Potency was inconclusive: 14.1 µM [activator, single point]. With `O=C(CSc1nnc(-c2cc3ccccc3cc2O)n1Cc1ccco1)c1ccc(F)cc1` the Potency was inconclusive: 18.3 µM [inhibitor, partial curve, poor fit]. For `CCC(=O)N1CCc2cc(S(=O)(=O)CCC(=O)N3CCN(c4cc(C)ccc4C)CC3)ccc21`, the Potency was “inactive”. In the case of `O=C(CN(Cc1ccc(Cl)cc1)C(=O)CNS(=O)(=O)c1ccccc1)NCC1CCCO1` (centres undefined), the Potency is reported as inconclusive: 6.31 µM [inhibitor, single point]. In the case of `O=[N+]([O-])c1ccc2c(c1)nc1n2CCCCC1`, the Potency is reported as inconclusive: 8.91 µM [inhibitor, partial curve, poor fit]. For `COc1ccc(Br)cc1S(=O)(=O)N1CCCC1`, the Potency was “inactive”. In the case of `COc1ccc(-c2cc(C#N)nc(N3CCN(C)CC3)n2)cc1`, the Potency is reported as inconclusive: 1.58 µM [inhibitor, partial curve, poor fit]. For `N#Cc1ccccc1S(=O)(=O)N1CCN(C(=O)c2cccc(S(=O)(=O)N3CCCC3)c2)CC1`, the Potency was inconclusive: 6.31 µM [inhibitor, single point]. For `COCCNC(=O)c1ccc(CSc2nc3ccncc3n2Cc2ccccc2)cc1`, the Potency was inconclusive: 28.2 µM [activator, single point]. With `COc1cc(/C=C/C(=O)NC(C)CCc2ccccc2)cc(OC)c1OC` (centres undefined) the Potency was inconclusive: 35.5 µM [inhibitor, single point]. With `CCOC(=O)c1ccc(NS(C)(=O)=O)cc1` the Potency was inconclusive: 5.62 µM [activator, single point]. For `CCOC(=O)C1=C(CCl)NC(=O)N(C(C)=O)C1c1ccccc1` (centres undefined), the Potency was “inactive”. In the case of `CCCCNC(=O)CC1N=C2c3ccccc3N=C(SCC(=O)Nc3cccc(OC)c3)N2C1=O` (centres undefined), the Potency is reported as inconclusive: 0.184 µM [activator, full curve, poor fit]. In the case of `COc1cc(C(=O)NCCC(=O)NCCc2ccc(Cl)cc2)cc(OC)c1OC`, the Potency is reported as inconclusive: 3.26 µM [inhibitor, partial curve, poor fit]. For `CCOC(=O)COc1ccc(C)cc1C(=O)c1ccn2nc(-c3ccc(C)cc3)cc2n1`, the Potency was “inactive”. With `COc1ccc(NS(=O)(=O)N2CCCCC2)cc1` the Potency was “inactive”. With `Cc1ccc(Cn2ccc(NC(=O)c3cc(-c4cccc(Cl)c4)on3)n2)cc1` the Potency was inconclusive: 5.62 µM [inhibitor, single point]. With `COc1cccc(OC)c1OCCNC[C@@H]1CSc2ccccc2O1` the Potency was active: 25.9 µM. In the case of `Cc1nc(S(=O)(=O)Nc2ccccc2C(=O)NCC2CC2)cn1C`, the Potency is reported as inconclusive: 1.41 µM [inhibitor, partial curve, poor fit]. With `COc1ccc(N2CC(C(=O)NC3CCCCC3)CC2=O)cc1` (centres undefined) the Potency was “inactive”. For `CCc1c(C)[nH]c2ccccc2c1=O`, the Potency was “inactive”. For `Cc1n[nH]c(=S)n1-c1ccc(Cl)cc1`, the Potency was “inactive”. With `CC(=O)N(Cc1ccc(F)cc1)C1=C(NCCc2ccccc2)C(=O)c2ccccc2C1=O` the Potency was inconclusive: 7.08 µM [inhibitor, full curve, poor fit]. For `CC(C)CN(Cc1c(O)ccc2ccccc12)CC(C)C`, the Potency was inconclusive: 3.16 µM [activator, single point]. With `C/C(=N\NC(=O)CC1N=C(Cc2ccccc2)NNC1=O)c1ccc(C)cc1` (centres undefined) the Potency was inconclusive: 11.2 µM [inhibitor, single point]. With `Cc1ccc(SCc2cc(=O)[nH]c(/N=C(\N)Nc3ccccc3Sc3ccccc3)n2)cc1` the Potency was “inactive”. With `COC(=O)c1ccccc1NC(=S)N(Cc1ccc2c(c1)OCO2)Cc1cc2cc(C)ccc2[nH]c1=O` the Potency was inconclusive: 10 µM [inhibitor, partial curve, poor fit]. In the case of `Cc1ccc(C)c(CN2C(=O)c3ccccc3S(=O)(=O)c3ccc(C(=O)N4CCN(c5ccccn5)CC4)cc32)c1`, the Potency is reported as inconclusive: 17.8 µM [inhibitor, partial curve, poor fit]. For `NC(=O)[C@@H]1CCCN1C(=O)[C@@H](Cc1cnc[nH]1)NC(=O)[C@@H]1CCC(=O)N1`, the Potency was inconclusive: 31.6 µM [activator, single point]. With `Cc1ccc(NC(=O)Cn2c(=O)n(-c3ccccc3)c(=O)c3c4c(sc32)CCCC4)cc1` the Potency was inconclusive: 2.82 µM [activator, single point]. For `O=C1c2cc(F)ccc2-n2c1nc1ccccc1c2=O`, the Potency was inconclusive: 0.631 µM [inhibitor, full curve, poor fit]. With `Cc1[nH]c(SCC(=O)c2c(N)n(C)c(=O)n(C)c2=O)nc1Cc1ccccc1` the Potency was inconclusive: 0.891 µM [inhibitor, partial curve, poor fit]. In the case of `CCOC(=O)c1cnc2cc(-c3ccc(C)cc3)nn2c1-c1ccccc1`, the Potency is reported as inconclusive: 35.5 µM [inhibitor, single point]. For `Cc1ccc([S+](=O)([O-])N[C@@H]2COC(=O)CC=C[C@H](C)COC(=O)N[C@@H](C)C(=O)CC=C[C@H]2C)cc1`, the Potency was “inactive”.
